Reference: PubChem BioAssay AID504467 (National Center for Advancing Translational Sciences (NCATS), 2011)
Among all 330,000 compounds or so, about 7,700 (2.3%) were called active. Inconclusive results, whose numbers are uncertain, are shown with a selection of clear calls. Calls follow the shape of the dose curve; as a rule, active = well fitted inhibition curve with a large enough effect; inconclusive = small, poorly fitted or top-dose-only effect, or effect the other way; inactive = flat fitted curve, though single readings scatter. Where the call is inconclusive, the potency comes from a doubtful curve fit.

Assay: qHTS screen for small molecules that inhibit ELG1-dependent DNA repair in human embryonic kidney (HEK293T) cells expressing luciferase-tagged ELG1; also: nearly all actives have a fitted effect of over 55% in size
Settings: HEK293T ELG1-luciferase reporter, luminescence, 16 h, DNA damage induced by 5-fluorouridine; series mostly up to 46.1 µM
In short: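 Step one: seed 2,000 cells per well. Step two: pin-transfer compound or DMSO alongside 5-fluorouridine. Step three: incubate 16 hr, 37 °C, 5% CO2. Step four: add ONE-Glo, wait 30 min, read luminescence.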
Potency is read from the fitted curve at half-maximal effect.

SMILES	Potency
Cc1cccc(C)c1NC(=O)CSc1ncnc2[nH]ncc12	inconclusive: 23.1 µM [inhibitor, single point]
O=C(N/N=C/C=C\c1cccc([N+](=O)[O-])c1)c1ccccn1	inconclusive: 16.4 µM [activator, partial curve]
O=C(c1ccncc1)N1C2C=CC(C2)C1(C(F)(F)F)C(F)(F)F (stereo not given)	inconclusive: 14.6 µM [inhibitor, partial curve, poor fit]
O=C(CN1C(=O)C2C3C=CC(C3)C2C1=O)Nc1nc2ccccc2[nH]1 (stereo not given)	inconclusive: 16.4 µM [activator, partial curve]
CC(=O)Nc1ccc2nc(NC(=O)C(Cl)(Cl)Cl)sc2c1	inconclusive: 18.3 µM [activator, single point]
Cn1nc(C(F)(F)F)c(C#N)c1N1CCN(c2ccccn2)CC1	inconclusive: 29.1 µM [inhibitor, single point]
CC(=O)c1ccc(C(=O)Nc2ccc(N3CCOCC3)cc2)cc1	inconclusive: 29.1 µM [activator, single point]
c1ccc(Cn2nnnc2C(c2ccncc2)N2CCOCC2)cc1 (stereo not given)	inactive
CCOc1ccc(C(=O)Nc2c(C(N)=O)oc3ccccc23)cc1	inconclusive: 29.1 µM [inhibitor, single point]
COc1ccc2c(c1)CCc1c(C(=O)N3CCCCCC3)noc1-2	inconclusive: 16.4 µM [activator, partial curve]
Cc1c(C(=O)OCC(=O)N2C(C)CCCC2C)oc2ccccc12 (stereo not given)	inconclusive: 18.3 µM [activator, partial curve]
Cc1cc2c(cc1C)CSC(c1c(O)ccc3ccccc13)SC2	inconclusive: 29.1 µM [inhibitor, single point]
CCN(CC(=O)Nc1c(F)cccc1F)C(=O)c1cc2ccccc2oc1=O	inconclusive: 0.92 µM [activator, partial curve]
CC1CCCCN1CC(=O)Nc1ccc(N2CCCCCC2)cc1 (stereo not given)	inactive
Cc1cc(=O)[nH]c(N2CCCC2)n1	inconclusive: 18.4 µM [activator, single point]
COc1cc2c(cc1OC)CN(C(=O)c1cc(S(=O)(=O)N3CCOCC3)ccc1Cl)CC2	inconclusive: 16.4 µM [inhibitor, partial curve]
CN(C)CCNc1oc(/C=C/c2ccccc2)nc1C#N	inconclusive: 23.1 µM [activator, single point]
CC1Cc2ccccc2N1S(=O)(=O)c1cccc(C(=O)NCCCO)c1 (stereo not given)	inactive
Fc1ccc(Cn2nnc(-c3ccc(Cl)cc3)n2)cc1	inconclusive: 23.1 µM [activator, single point]
CC(C)COc1ccc(C(=O)NC(Cc2c[nH]c3ccccc23)C(=O)NN)cc1 (stereo not given)	inactive
Fc1ccc(CNC(=S)Nc2ccc(Cl)cc2Cl)cc1	inactive
CCN(CC)S(=O)(=O)c1ccc(C(=O)Nc2nnc(CSC)o2)cc1	inconclusive: 16.4 µM [inhibitor, partial curve]
COc1ccc(CCNC(=O)COC(=O)Cn2cnc3c2c(=O)n(C)c(=O)n3C)cc1	inactive
O=C1Nc2ccccc2N(O)N1c1ccc(S(=O)(=O)N2CCOCC2)cc1	inactive

Among those listed so far, two have a CF3 group.
SMILES	Potency
O=C(c1ccncc1)N1C2C=CC(C2)C1(C(F)(F)F)C(F)(F)F (stereo not given)	inconclusive: 14.6 µM [inhibitor, partial curve, poor fit]
Cn1nc(C(F)(F)F)c(C#N)c1N1CCN(c2ccccn2)CC1	inconclusive: 29.1 µM [inhibitor, single point]

Carrying on:

SMILES	Potency
O=C(NCCCO)C(=O)NCC1OCCCN1S(=O)(=O)c1cccs1 (stereo not given)	inactive
COc1ccc(S(=O)(=O)NCC2CCC(C(=O)NCc3ccc(F)cc3)CC2)cc1 (stereo not given)	inactive
O=C(NCCCN1CCOCC1)c1ccc(-n2nc(C(F)(F)F)cc2-c2cccs2)cc1	active: 14.6 µM
CC(=O)Nc1ccc(NC(=O)C(C)N(C)CC(=O)Nc2ccccc2Br)cc1 (stereo not given)	inactive
Cc1ccc(-c2nnc(N3CCN(C(=O)c4ccco4)CC3)c3ccccc23)cc1	inconclusive: 22.4 µM [inhibitor, single point]
O=S1(=O)c2ccc(Br)cc2N2CCC[C@@H]2CN1Cc1ccccc1	inconclusive: 4.11 µM [inhibitor, full curve]
O=C(O)C1CC=CCC1C(=O)NNc1ccccc1 (stereo not given)	inconclusive: 18.3 µM [inhibitor, single point]
Cc1cccc(OCCN2C(=O)c3ccccc3C2=O)c1	inconclusive: 20.6 µM [activator, partial curve]
CC(C)(C)CC(=O)Nc1ccccc1N1CCN(c2ccc(F)cc2)CC1	inactive
NC(=O)Nc1ccc(C(=O)OCC(=O)c2c[nH]c3ccccc23)cc1	inconclusive: 13 µM [activator, single point]
CCCc1c(C)nc(N2CCN(c3ccccc3F)CC2)[nH]c1=O	inactive
O=C(COc1ccccc1)Nc1ccccc1F	inconclusive: 11.2 µM [activator, partial curve]
N#CC1=C(N)C(C#N)(C#N)C(c2ccc[nH]2)C2CCCC=C12 (stereo not given)	inconclusive: 11.6 µM [inhibitor, partial curve]
CCc1nnc(NC(=O)c2ccc(Br)c(S(=O)(=O)N3CCOCC3)c2)s1	inconclusive: 5.17 µM [inhibitor, partial curve, poor fit]
O=C(Nc1cc(Br)ccc1O)c1cc(-c2ccco2)on1	inconclusive: 29.1 µM [activator, single point]
Cc1ccc(-n2c(O)c(/C=N/NC(=O)C3COc4ccccc4O3)c3ccccc3c2=O)cc1 (stereo not given)	inactive
CC1(C)Cc2c(sc(NC(=O)COc3cccc4ccccc34)c2C#N)C(C)(C)N1	inconclusive: 20.6 µM [activator, partial curve, poor fit]
Fc1ccccc1CSc1nnc(-c2cccs2)o1	inconclusive: 8.91 µM [activator, partial curve]
CC(C)CNC(=S)N(CCO)Cc1cc2cc3c(cc2[nH]c1=O)OCO3	inactive
CC(=O)c1cc2c(C)c(C(=O)c3ccccc3)oc2cc1O	inconclusive: 1.46 µM [activator, full curve]
Cc1cccc(NC(=O)Nc2ccc(C)cc2Br)c1	inconclusive: 8.2 µM [activator, partial curve]
CCN(CC)S(=O)(=O)c1ccc(N2CCCC2)c(NC(=O)c2c(-c3ccccc3)noc2C)c1	inconclusive: 29.1 µM [inhibitor, single point]
CCc1ccc(NC(=O)c2c(Cl)nc(C)c(Cl)c2C)cc1	inconclusive: 29.1 µM [inhibitor, single point]
Cc1cccc(NC(=O)C2CC(=O)n3cnnc3S2)c1 (stereo not given)	inactive

SMILES	Potency
NC(=Nc1ccc(Cl)cc1)c1ccccc1	inconclusive: 25.9 µM [activator, single point]
N#CC1=C(SCC(=O)Nc2cccc3cccnc23)NC(=O)C(C#N)C12CCCCC2 (stereo not given)	inconclusive: 29.1 µM [inhibitor, single point]
COc1ccc(-n2nc(C)cc2N)cc1	inconclusive: 32.6 µM [activator, partial curve, poor fit]
NC(=O)NC(=O)CSc1cccc(C(F)(F)F)c1	inconclusive: 10.3 µM [activator, partial curve]
COc1cccc(-c2cc(C(=O)N3CC4(C)CC3CC(C)(C)C4)no2)c1 (stereo not given)	inconclusive: 29.1 µM [inhibitor, single point]
Cc1ccc(-c2cc(C(=O)NCC3CCCO3)no2)cc1 (stereo not given)	inconclusive: 8.2 µM [activator, partial curve]
O=C(NCCCn1ccnc1)C(Cc1ccccc1)N1C(=O)c2ccccc2C1=O (stereo not given)	inconclusive: 1.16 µM [inhibitor, single point]
CCOC(=O)c1c(C)[nH]c(C)c1S(=O)(=O)NCCN1CCN(c2cc(Cl)ccc2C)CC1	inconclusive: 18.3 µM [inhibitor, single point]
Cc1ccc2c(Cl)cc(Cl)c(OCC(=O)Nc3cccc(S(N)(=O)=O)c3)c2n1	inconclusive: 20.6 µM [inhibitor, partial curve]
N#CC1C(C#N)N2CCCN2C1c1ccc(Cl)cc1 (stereo not given)	inactive
CN(C)S(=O)(=O)c1ccc(Cl)c(C(=O)NC2CCCCCCC2)c1	inactive
C/C(=N/NC(=O)CNC(=O)COc1ccccc1)c1ccco1	inconclusive: 29.1 µM [activator, partial curve, poor fit]
Cc1cc(C)c(C(=O)NC2CC(C)(C)Cc3c2cnn3-c2cccc(F)c2)[nH]1 (stereo not given)	inconclusive: 18.3 µM [inhibitor, partial curve]
CC(=O)NC(c1ccccc1)c1c(O)ccc2ccccc12 (stereo not given)	inconclusive: 14.6 µM [inhibitor, partial curve, poor fit]
COc1ccc(C(=O)NCCS(=O)(=O)NCc2cccnc2)cc1	inconclusive: 6.51 µM [inhibitor, single point]
COc1ccc(/C=N\NC(=O)C2=NNC(=O)C2C)cc1 (stereo not given)	inconclusive: 9.2 µM [activator, partial curve]
Cc1cccc(NC(=S)NNC(=S)NCc2ccccc2)c1	inactive
CCOc1cc2[nH]c(=O)n(Cc3ccc(C(=O)NCCCN4CCC(C)CC4)cc3)c(=O)c2cc1OCC	inactive
CN(C(=O)CN1C(=O)S/C(=C\c2ccccc2)C1=O)C1CCS(=O)(=O)C1 (stereo not given)	inconclusive: 16.4 µM [activator, partial curve]
CN1/C(=C/C(=O)c2cccs2)Sc2ccccc21	inconclusive: 1.3 µM [activator, full curve]
N/C(=N\OC(=O)c1ccc(Br)cc1)c1ccncc1	inconclusive: 13 µM [activator, partial curve]
O=C(N/N=C/c1ccc(O)c([N+](=O)[O-])c1)c1ccncc1	inconclusive: 10.3 µM [inhibitor, partial curve, poor fit]
